The source of these data is article PMC2654425.

No constants are given. Whether binding was seen depends on the method and setting. Binding can be weak; no strength is given.

In the assay the target is T1, Lactobacillus plantarum LM3 EnoA1 alfa-enolase (phosphopyruvate hydratase) (Lactobacillus plantarum LM3 (endogenous in LM3 cells)) (UniProt Q88YH3).
T1 sequence: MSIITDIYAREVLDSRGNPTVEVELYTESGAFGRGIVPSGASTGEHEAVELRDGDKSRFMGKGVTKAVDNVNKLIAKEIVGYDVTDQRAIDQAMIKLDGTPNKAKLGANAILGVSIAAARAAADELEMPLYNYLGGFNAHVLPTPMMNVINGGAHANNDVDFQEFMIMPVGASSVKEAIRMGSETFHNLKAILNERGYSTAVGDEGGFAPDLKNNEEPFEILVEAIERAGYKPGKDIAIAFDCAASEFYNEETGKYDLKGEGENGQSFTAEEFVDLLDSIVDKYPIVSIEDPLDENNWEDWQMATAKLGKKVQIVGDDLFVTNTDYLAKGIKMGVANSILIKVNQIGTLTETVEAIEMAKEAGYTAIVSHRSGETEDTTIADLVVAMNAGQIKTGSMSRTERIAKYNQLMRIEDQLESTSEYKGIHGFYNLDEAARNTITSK
The assay is described as follows: far-Western, overlay or dot blot; L. plantarum surface proteins (10 micrograms) separated by SDS-PAGE (10%), blotted onto PVDF, overlaid with 0.2 micrograms/ml human fibronectin overnight at 4°C in NN' buffer; bound fibronectin detected with primary antibody for fibronectin, HRP secondary antibody and ECL; extracts of LM3 and of the enoA1 null strain LM3-CC1; only the binder purified.

Consider human fibronectin, for which the binding entry is given as “binds”.
